Assay results taken from article PMC5433425 (PeerJ, 2017).
Further values from the same series stand in other lists.

What was measured:
[1] = test system: E. coli AG100tet; assay: EtBr efflux by real-time fluorometry; settings: 80 µM, + glucose
[2] = test system: E. coli AG100A; assay: EtBr efflux by real-time fluorometry; settings: 20 µM, + glucose

CCCOc1ccc(-c2cc(OCCN3CCNCC3)c3ccccc3n2)cc1 [PQQ4R, 4-(2-(piperazin-1-yl)ethoxy)-2-(4-propoxyphenyl) quinolone]
Fluorescence raw data, Channel Cycling A.530/585hp ([1]; cycle 4): 3.127 | Fluorescence raw data, Channel Cycling A.530/585hp ([1]; cycle 5): 3.247 | Fluorescence raw data, Channel Cycling A.530/585hp ([1]; cycle 6): 3.276 | Fluorescence raw data, Channel Cycling A.530/585hp ([1]; cycle 7): 3.388 | Fluorescence raw data, Channel Cycling A.530/585hp ([1]; cycle 8): 3.388 | Fluorescence raw data, Channel Cycling A.530/585hp ([1]; cycle 45): 4.986 | Fluorescence raw data, Channel Cycling A.530/585hp ([1]; cycle 46): 4.965 | Fluorescence raw data, Channel Cycling A.530/585hp ([1]; cycle 47): 5.035 | Fluorescence raw data, Channel Cycling A.530/585hp ([1]; cycle 48): 5.079 | Fluorescence raw data, Channel Cycling A.530/585hp ([1]; cycle 49): 4.978 | Fluorescence raw data, Channel Cycling A.530/585hp ([1]; cycle 50): 4.9269 | Fluorescence raw data, Channel Cycling A.530/585hp ([1]; cycle 51): 4.971 | Fluorescence raw data, Channel Cycling A.530/585hp ([1]; cycle 52): 4.9136 | Fluorescence raw data, Channel Cycling A.530/585hp ([1]; cycle 53): 4.918 | Fluorescence raw data, Channel Cycling A.530/585hp ([1]; cycle 54): 4.988 | Fluorescence raw data, Channel Cycling A.530/585hp ([1]; cycle 55): 4.908 | Fluorescence raw data, Channel Cycling A.530/585hp ([1]; cycle 56): 4.756 | Fluorescence raw data, Channel Cycling A.530/585hp ([1]; cycle 57): 4.899 | Fluorescence raw data, Channel Cycling A.530/585hp ([1]; cycle 58): 4.813 | Fluorescence raw data, Channel Cycling A.530/585hp ([1]; cycle 59): 4.85 | Fluorescence raw data, Channel Cycling A.530/585hp ([1]; cycle 60): 4.844 | Fluorescence raw data, Channel Cycling A.530/585hp ([1]; cycle 61): 4.688 | Fluorescence raw data, Channel Cycling A.530/585hp ([2]; cycle 1): 5.606 | Fluorescence raw data, Channel Cycling A.530/585hp ([2]; cycle 2): 5.311 | Fluorescence raw data, Channel Cycling A.530/585hp ([2]; cycle 3): 5.0425 | Fluorescence raw data, Channel Cycling A.530/585hp ([2]; cycle 4): 4.7307 | Fluorescence raw data, Channel Cycling A.530/585hp ([2]; cycle 5): 4.679 | Fluorescence raw data, Channel Cycling A.530/585hp ([2]; cycle 6): 4.45 | Fluorescence raw data, Channel Cycling A.530/585hp ([2]; cycle 7): 4.322 | Fluorescence raw data, Channel Cycling A.530/585hp ([2]; cycle 8): 4.281 | Fluorescence raw data, Channel Cycling A.530/585hp ([2]; cycle 9): 4.194 | Fluorescence raw data, Channel Cycling A.530/585hp ([2]; cycle 10): 4.14 | Fluorescence raw data, Channel Cycling A.530/585hp ([2]; cycle 11): 4.111 | Fluorescence raw data, Channel Cycling A.530/585hp ([2]; cycle 12): 4.165 | Fluorescence raw data, Channel Cycling A.530/585hp ([2]; cycle 13): 4.177 | Fluorescence raw data, Channel Cycling A.530/585hp ([2]; cycle 14): 4.086 | Fluorescence raw data, Channel Cycling A.530/585hp ([2]; cycle 15): 4.047 | Fluorescence raw data, Channel Cycling A.530/585hp ([2]; cycle 16): 4.171 | Fluorescence raw data, Channel Cycling A.530/585hp ([2]; cycle 17): 4.122 | Fluorescence raw data, Channel Cycling A.530/585hp ([2]; cycle 18): 4.052 | Fluorescence raw data, Channel Cycling A.530/585hp ([2]; cycle 19): 4.146 | Fluorescence raw data, Channel Cycling A.530/585hp ([2]; cycle 20): 4.0945 | Fluorescence raw data, Channel Cycling A.530/585hp ([2]; cycle 21): 4.078 | Fluorescence raw data, Channel Cycling A.530/585hp ([2]; cycle 22): 4.068 | Fluorescence raw data, Channel Cycling A.530/585hp ([2]; cycle 23): 4.059 | Fluorescence raw data, Channel Cycling A.530/585hp ([2]; cycle 24): 4.008 | Fluorescence raw data, Channel Cycling A.530/585hp ([2]; cycle 25): 3.945 | Fluorescence raw data, Channel Cycling A.530/585hp ([2]; cycle 26): 3.983 | Fluorescence raw data, Channel Cycling A.530/585hp ([2]; cycle 27): 3.9596 | Fluorescence raw data, Channel Cycling A.530/585hp ([2]; cycle 28): 3.9645 | Fluorescence raw data, Channel Cycling A.530/585hp ([2]; cycle 29): 3.95 | Fluorescence raw data, Channel Cycling A.530/585hp ([2]; cycle 30): 3.922 | Fluorescence raw data, Channel Cycling A.530/585hp ([2]; cycle 31): 3.866 | Fluorescence raw data, Channel Cycling A.530/585hp ([2]; cycle 32): 3.901 | Fluorescence raw data, Channel Cycling A.530/585hp ([2]; cycle 33): 3.889 | Fluorescence raw data, Channel Cycling A.530/585hp ([2]; cycle 34): 3.872 | Fluorescence raw data, Channel Cycling A.530/585hp ([2]; cycle 35): 3.819 | Fluorescence raw data, Channel Cycling A.530/585hp ([2]; cycle 36): 3.8799 | Fluorescence raw data, Channel Cycling A.530/585hp ([2]; cycle 37): 3.7995 | Fluorescence raw data, Channel Cycling A.530/585hp ([2]; cycle 38): 3.822 | Fluorescence raw data, Channel Cycling A.530/585hp ([2]; cycle 39): 3.833 | Fluorescence raw data, Channel Cycling A.530/585hp ([2]; cycle 40): 3.824 | Fluorescence raw data, Channel Cycling A.530/585hp ([2]; cycle 41): 3.848 | Fluorescence raw data, Channel Cycling A.530/585hp ([2]; cycle 42): 3.911 | Fluorescence raw data, Channel Cycling A.530/585hp ([2]; cycle 43): 3.844 | Fluorescence raw data, Channel Cycling A.530/585hp ([2]; cycle 44): 3.857 | Fluorescence raw data, Channel Cycling A.530/585hp ([2]; cycle 45): 3.887 | Fluorescence raw data, Channel Cycling A.530/585hp ([2]; cycle 46): 3.873 | Fluorescence raw data, Channel Cycling A.530/585hp ([2]; cycle 47): 3.8177 | Fluorescence raw data, Channel Cycling A.530/585hp ([2]; cycle 48): 3.877 | Fluorescence raw data, Channel Cycling A.530/585hp ([2]; cycle 49): 3.876 | Fluorescence raw data, Channel Cycling A.530/585hp ([2]; cycle 50): 3.822 | Fluorescence raw data, Channel Cycling A.530/585hp ([2]; cycle 51): 3.896 | Fluorescence raw data, Channel Cycling A.530/585hp ([2]; cycle 52): 3.865 | Fluorescence raw data, Channel Cycling A.530/585hp ([2]; cycle 53): 3.909 | Fluorescence raw data, Channel Cycling A.530/585hp ([2]; cycle 54): 3.8333 | Fluorescence raw data, Channel Cycling A.530/585hp ([2]; cycle 55): 3.815 | Fluorescence raw data, Channel Cycling A.530/585hp ([2]; cycle 56): 3.832 | Fluorescence raw data, Channel Cycling A.530/585hp ([2]; cycle 57): 3.751 | Fluorescence raw data, Channel Cycling A.530/585hp ([2]; cycle 58): 3.746 | Fluorescence raw data, Channel Cycling A.530/585hp ([2]; cycle 59): 3.734 | Fluorescence raw data, Channel Cycling A.530/585hp ([2]; cycle 60): 3.735 | Fluorescence raw data, Channel Cycling A.530/585hp ([2]; cycle 61): 3.678
